Some results were stated once for a whole list of compounds, not compound by compound.
System: gut motility
Test: Charcoal propulsion test (gut motility)
Assay type: in vivo
Conditions: rat, oral
Procedure: The effect of a drug on gut motility can be studied by means of the charcoal propulsion test.
The method used was based on that described by Takemori et al. (J. Pharmacol. Exp. Ther. 169:39, 1969). Test treatments were administered orally 60 minutes prior to an oral dose of a 10% suspension of charcoal in 2.5% gum Arabic (2 ml/kg). Twenty minutes after dosing with charcoal, the rats were sacrificed and the entire gastrointestinal tract was removed quickly and carefully. The distance that the charcoal meal had travelled toward the caecum was measured and expressed as a percentage of the total gut length.

Q: Which “dose required to inhibit GIT transit to the same extent as guanfacine, as molar equivalents” value does the source give for `CC(C)[C@H](N)C(=O)NCCC(=O)NC(=N)NC(=O)Cc1c(Cl)cccc1Cl` [Compound 2, guanfacine-β-alanine-(S)-valine amide di-trifluoroacetate] here?
A: The value was no less than 10 fold.

Reference: patent US20120178666A1 (SHIRE LLC, priority 2009, published 2012)
